Measured data: PubChem BioAssay AID743454 (Peter MacCallum Cancer Centre, 2014)

- Assay: 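Genes whose loss kills vorinostat-resistant colon cancer cells under vorinostat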 (primary screen)
- Cell system: human HCT116-VR colon cancer cells, selected for vorinostat resistance
- Reagent: siRNA pool against human genes, 40 nM siRNA pool
- Time to read-out: vorinostat for 24 h, read-out about 72 h after transfection
- Treatment: vorinostat at 2.5 µM final
- Measured: 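Cell viability by CellTiter-Fluor and caspase 3/7 activity by luminescence, each scaled to mock wells per plate, duplicates averaged, then robust z-scored over all plates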
- Direction: viability robust z-score: higher = more viable cells than screen typical; caspase robust z-score: higher = more caspase 3/7 activity than screen typical
- Active means: 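a knock-down is a hit when classed RV1 or RV2 for lowered viability, or CA1 or CA2 for caspase activation; those lethal without drug were dropped; hits were retested singly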
Here is an unselected part of about 18,000 reagents tested. In the full data, 450 (2.5%) are marked active. 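Single biological run; no consistent viability z cut-off exists, so the class columns, not z-scores, define the calls.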 Entries without a mark were called inactive. No sequences are given here.

ALPK3 — viability hit class = no change; caspase hit class = no change; viability robust z-score = 0.49; caspase robust z-score = -0.24
PCDHGC4 — viability hit class = no change; caspase hit class = no change; viability robust z-score = 0.93; caspase robust z-score = -0.96
MCRS1 — viability hit class = no change; caspase hit class = no change; viability robust z-score = -0.66; caspase robust z-score = -0.22
OR56A4 — viability hit class = no change; caspase hit class = no change; viability robust z-score = 0.71; caspase robust z-score = 0.79
CYP2W1 — viability hit class = no change; caspase hit class = no change; viability robust z-score = -0.05; caspase robust z-score = -0.22
CDKN1C — viability hit class = no change; caspase hit class = no change; viability robust z-score = 0.72; caspase robust z-score = 0.52
SCAF8 — viability hit class = no change; caspase hit class = no change; viability robust z-score = -0.14; caspase robust z-score = 0.4
LMAN1 — viability hit class = no change; caspase hit class = no change; viability robust z-score = 1; caspase robust z-score = -0.24
RBM33 — viability hit class = no change; caspase hit class = no change; viability robust z-score = -0.6; caspase robust z-score = 2.04
ORC1 — viability hit class = no change; caspase hit class = no change; viability robust z-score = -0.31; caspase robust z-score = 1.88
PEX5 — viability hit class = no change; caspase hit class = no change; viability robust z-score = 0.05; caspase robust z-score = 0.09
ZSCAN26 — viability hit class = no change; caspase hit class = no change; viability robust z-score = -1.64; caspase robust z-score = -0.52
AFF4 — viability hit class = no change; caspase hit class = no change; viability robust z-score = -0.22; caspase robust z-score = 1.46
INTS5 — viability hit class = no change; caspase hit class = no change; viability robust z-score = -0.96; caspase robust z-score = 2.3
BTBD9 — viability hit class = no change; caspase hit class = no change; viability robust z-score = 0.36; caspase robust z-score = -0.52
HPSE — viability hit class = no change; caspase hit class = no change; viability robust z-score = 0.38; caspase robust z-score = 0.36
BTLA — viability hit class = no change; caspase hit class = no change; viability robust z-score = 0.95; caspase robust z-score = 1.21
CLEC7A — viability hit class = no change; caspase hit class = no change; viability robust z-score = 0.3; caspase robust z-score = -0.49
AP2M1 — viability hit class = no change; caspase hit class = no change; viability robust z-score = -0.24; caspase robust z-score = -0.86
ENTPD1 — viability hit class = no change; caspase hit class = no change; viability robust z-score = -0.57; caspase robust z-score = 2.38
MLXIP — viability hit class = no change; caspase hit class = no change; viability robust z-score = 0.32; caspase robust z-score = -0.98
OSGEP — viability hit class = no change; caspase hit class = no change; viability robust z-score = -0.92; caspase robust z-score = -1.08
NDUFB5 — viability hit class = no change; caspase hit class = no change; viability robust z-score = -0.12; caspase robust z-score = -1.04
EAF2 — viability hit class = no change; caspase hit class = no change; viability robust z-score = 2.11; caspase robust z-score = -0.21
ANO6 — viability hit class = no change; caspase hit class = no change; viability robust z-score = 0.6; caspase robust z-score = 0.08
BCAR3 — viability hit class = no change; caspase hit class = no change; viability robust z-score = -1.36; caspase robust z-score = -0.83
DNAAF10 — viability hit class = no change; caspase hit class = no change; viability robust z-score = 0.19; caspase robust z-score = -0.74

3 entries already listed, arranged by “viability robust z-score”, low to high.
SCAF8 — viability hit class = no change; caspase hit class = no change; viability robust z-score = -0.14; caspase robust z-score = 0.4
CYP2W1 — viability hit class = no change; caspase hit class = no change; viability robust z-score = -0.05; caspase robust z-score = -0.22
CDKN1C — viability hit class = no change; caspase hit class = no change; viability robust z-score = 0.72; caspase robust z-score = 0.52
